{"source": "patent US20230172897A1", "about": "“METHODS OF TREATING BREAST CANCERS WITH SELECTIVE ANDROGEN RECEPTOR MODULATORS AND ADDITIONAL THERAPEUTIC AGENTS” (VERU, INC., priority 2021, published 2023)", "test_system": "ER-positive metastatic breast cancer", "test": "Phase 2 clinical trial (G200801), 9 mg daily", "format": "in vivo, women", "description": "The goal of this study was to determine the importance of the AR status as a therapeutic target in women with ER-positive metastatic breast cancer (MBC) that had previously responded to hormone therapy. The treatment was continued until disease progression (PD).\nCBR will be correlated with AR status of metastatic tumor biopsy.\nSerum prostate specific antigen (PSA) was evaluated as a biomarker of AR activity.\nFemale subjects with ER-positive metastatic breast cancer who have previously been treated with up to 3 prior hormonal therapies for the treatment of breast cancer. […]\nMeasurable and non-measurable lesions (primary and/or metastatic) were identified and assessed by a modified Response Evaluation Criteria In Solid Tumors (RECIST 1.1) classification over the course of this study (described in detail below).\nThe primary efficacy analysis was the clinical benefit in subjects with AR-positive breast cancer at 6 months as measured by a modified Response Evaluation Criteria In Solid Tumors (RECIST 1.1) classification. Key secondary endpoints of clinical benefit in all subjects and AR-negative subjects, as well as objective response rate, progression free survival, time to progression, duration of response, incidence of SREs, and time to first SRE in subsets based on AR status (i.e., all subjects, AR-positive subjects, and AR-negative subjects) was also assessed. […]", "data": [{"smiles": "C[C@](O)(COc1ccc(C#N)cc1)C(=O)Nc1ccc(C#N)c(C(F)(F)F)c1", "note": "[Formula IX, (S)—N-(4-Cyano-3-(trifluoromethyl)phenyl)-3-(4-cyanophenoxy)-2-hydroxy-2-methylpropanamide]", "values": [{"measurement": "biomarkers of bone turnover", "result": "No useful trends"}, {"measurement": "breast cancer biomarker CA 27-29", "result": "did not demonstrate any useful trends"}]}]}
